Columns and labels:
Type in all cases: functional, cell-based
[1] = system: SK-MEL-28; assay: Antiproliferative activity against human SK-MEL-28 cells assessed as cell growth inhibition incubated for 48 hrs by MTT assay; details: SK-MEL-28, 48 h
[2] = system: SK-MEL-5; assay: Antiproliferative activity against human SK-MEL-5 cells assessed as cell growth inhibition incubated for 48 hrs by MTT assay; details: SK-MEL-5, 48 h
[3] = system: A-375; assay: Antiproliferative activity against human A375 cells assessed as cell growth inhibition incubated for 48 hrs by MTT assay; details: A-375, 48 h

- IC50 [1]: 75.8 µM
- IC50 [2]: 62.2 µM
- IC50 [3]: 59.5 µM
Compound: CC(C)NCC(O)COc1cccc2ccccc12 (stereo not drawn) [PROPRANOLOL]

Reference: ChEMBL document CHEMBL4627350, “Drug repurposing and rediscovery: Design, synthesis and preliminary biological evaluation of 1-arylamino-3-aryloxypropan-2-ols as anti-melanoma agents” (Bioorg Med Chem, 2020)
